# Source: article PMC7819943, “Rice protein-binding microarrays: a tool to detect cis-acting elements near promoter regions in rice”
# Protein sequences, listed by entry. Tags and fused reporters are not part of them.
# UniProt Q0JBA9, entry or part of it: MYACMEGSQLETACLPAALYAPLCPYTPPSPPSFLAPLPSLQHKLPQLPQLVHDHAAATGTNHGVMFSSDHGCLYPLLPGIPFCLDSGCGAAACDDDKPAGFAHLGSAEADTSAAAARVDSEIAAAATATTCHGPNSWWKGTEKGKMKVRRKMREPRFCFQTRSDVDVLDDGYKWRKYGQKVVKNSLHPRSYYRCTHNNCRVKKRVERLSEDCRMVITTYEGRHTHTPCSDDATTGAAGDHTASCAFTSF
# The other results are listed elsewhere or left out.
# Biological target: OsWRKY34 (Oryza sativa, UniProt Q0JBA9 1-250)
# Test: protein-binding microarray (RPBM); PBS, 2% BSA, 51.3 ng/ul salmon testes DNA, 50 uM zinc acetate, 200 nM TF, 25 C, 1 h; high values mean tight binding
# Settings: protein: recombinant; tags: N-terminal polyhistidine and DsRed monomer fusion (pET32a); label: CyDye5-dUTP incorporated in the synthesized complementary strand; 3' TTTTT single-stranded linker to array surface; dsDNA, one strand shown
# Summary of the method: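 The binding signal is fluorescence intensity per array feature (arbitrary units). Readings came from an Axon 4000B scanner after a washed, 2% BSA-blocked, double-stranded custom Agilent array had been incubated for 1 h at 25 °C with 200 nM protein and 50 µM zinc acetate. The protein was a Ni–NTA-purified transcription factor fused N-terminally to polyhistidine and DsRed, expressed in E. coli BL21-CodonPlus.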
row,Sequence,binding signal
1,ACATTCAGGTCCTCATCGGTTGCTCATATTTTTAATAAGACGGAGTCACCTAGTGCAG,8800 fluorescence intensity (a.u.)
2,TAATACTACTACTCCTACCCTGACGCGTGACCCGGCCGGTCGGAGTCACCTAGTGCAG,8600 fluorescence intensity (a.u.)
3,CTGTATTCATTCTTTCCATTGGTATCTGATTTTGCGGAAGCGGAGTCACCTAGTGCAG,10800 fluorescence intensity (a.u.)
4,TTGTAGTCCGCTGCTTTCCCTTTCTTTTATCTTCTCTTTCCGGAGTCACCTAGTGCAG,8450 fluorescence intensity (a.u.)
5,ATCTCATGGGTGAATCCATTCATCGATAGTGTGGTTTTGTCGGAGTCACCTAGTGCAG,9650 fluorescence intensity (a.u.)
6,CATCTTCTTGCTCGTACAACGTAAATACTCGTACTACTACCGGAGTCACCTAGTGCAG,8830 fluorescence intensity (a.u.)
7,GCGCAGTGGTCGTCGCCCTCGTTGTTTACTTTGCTTAATTCGGAGTCACCTAGTGCAG,13300 fluorescence intensity (a.u.)
8,TAGATCTATATTTTTTTTCCTTTTTCTTTCAAATGTGTATCGGAGTCACCTAGTGCAG,8260 fluorescence intensity (a.u.)
9,CTCGTCCGGCCCACCGCTCCTCCTCGAGCAGCCTCTTCCTCGGAGTCACCTAGTGCAG,8510 fluorescence intensity (a.u.)
10,AATCTAACGCGGTAACTTTTTCCAGCCTGGGTTTTTGCATCGGAGTCACCTAGTGCAG,9560 fluorescence intensity (a.u.)
11,TGCCTCTCACGTACTGACACTGTTGCGCACACGCACGCACCGGAGTCACCTAGTGCAG,9670 fluorescence intensity (a.u.)
12,GTTGTTTGGTTGCGTGAGGAGAGGAGGAGGAGGAGGAGGACGGAGTCACCTAGTGCAG,8200 fluorescence intensity (a.u.)
13,GGGCTGTTATCTCTGATGTGTTTTCTGCCTCTCATGTCATCGGAGTCACCTAGTGCAG,17000 fluorescence intensity (a.u.)
14,AATAGCTGAATAGCACATCGCCATCACAATGCCAGCGCCTCGGAGTCACCTAGTGCAG,8610 fluorescence intensity (a.u.)
15,CAGATTAATTGTTATTCATATATATACATTGACACTCGTTCGGAGTCACCTAGTGCAG,8330 fluorescence intensity (a.u.)
16,TGTTCTGGGTGTAGTGGTTGTGCTGGTTTCTTTAATGGAACGGAGTCACCTAGTGCAG,8940 fluorescence intensity (a.u.)
17,CAGCACAAGTGTCGTCGTCTCTCCGTTTCTTGTGCAGTTTCGGAGTCACCTAGTGCAG,12100 fluorescence intensity (a.u.)
18,GCATACATACATACATACATACCCACCAGCTGATCGATGGCGGAGTCACCTAGTGCAG,8080 fluorescence intensity (a.u.)
19,TCACCAGTCATTACACTCTGCCATTTCCTTATCCAGTTATCGGAGTCACCTAGTGCAG,12600 fluorescence intensity (a.u.)
20,ACGTGAAGTTTGACTCCTTTTGATATATTATCGTTTTAAACGGAGTCACCTAGTGCAG,8360 fluorescence intensity (a.u.)
21,CCTTTTCAGTTACTCATCAATTACCTTTTAGTTTTTGTCACGGAGTCACCTAGTGCAG,8650 fluorescence intensity (a.u.)

row,Sequence,binding signal
1,TCATTCATCATCAGCAGCAGTCAGTCCATCCAACGCGTCTCGGAGTCACCTAGTGCAG,11000 fluorescence intensity (a.u.)
2,TTTAATATATAACACCGTTGACTTTTTATCAAACGTTTGACGGAGTCACCTAGTGCAG,23400 fluorescence intensity (a.u.)
3,AGAGTTTTTTTTACGGATAGCGTACTCATCTAATCTACCACGGAGTCACCTAGTGCAG,9030 fluorescence intensity (a.u.)
4,GTGGTGGTGTGTAGGCTGCAGCTGCATTTCATCCCGGGAGCGGAGTCACCTAGTGCAG,9700 fluorescence intensity (a.u.)
5,GAAAGTGGGAGAGAGAATAGGTTGGGGTGGTTGGTTTGGGCGGAGTCACCTAGTGCAG,14700 fluorescence intensity (a.u.)
6,GCATGAGGTTTGCCGTTTTGTCCCTTTCTGTTACTTTTTTCGGAGTCACCTAGTGCAG,11100 fluorescence intensity (a.u.)
7,CATTTTTACATCACCCCAAACCCCATCATTTCTTGCTTCCCGGAGTCACCTAGTGCAG,10900 fluorescence intensity (a.u.)
8,GTCTTCCGCGGCGGCGGCGGGGAAGCGGGCGCGGGCGGGGCGGAGTCACCTAGTGCAG,13800 fluorescence intensity (a.u.)
9,ACCTTAATCGATCTTAATTAATCGCTAACCTTTATGTCATCGGAGTCACCTAGTGCAG,8980 fluorescence intensity (a.u.)
10,CAGTAACAAGTGCATGCCTCATCTGTCTTGTACTTATCTTCGGAGTCACCTAGTGCAG,8460 fluorescence intensity (a.u.)
11,GTCCATTGATTTCTCGCCGCGCTTAATTTGTCCTCCGATCCGGAGTCACCTAGTGCAG,10500 fluorescence intensity (a.u.)
12,TCTCCTTTTAATCTAGCCACCATTTTAATCCCTGTGGCTTCGGAGTCACCTAGTGCAG,9170 fluorescence intensity (a.u.)
13,CGGACGCTTCTTCTCTTCGCCGCCTATTTCTTCAGCTCCTCGGAGTCACCTAGTGCAG,8150 fluorescence intensity (a.u.)
14,CAATATATGCTTTGAGGTGGCTCTCTCTCTCTCTCTCTCTCGGAGTCACCTAGTGCAG,8130 fluorescence intensity (a.u.)
15,TGCACAATTGTATTTCTTTTAAGCTAAAAGGGGATTTATACGGAGTCACCTAGTGCAG,8260 fluorescence intensity (a.u.)
16,TCAAGCCTTTTCGACGAGCTTACGGCAATTGCTTCGTTCACGGAGTCACCTAGTGCAG,8500 fluorescence intensity (a.u.)
17,TTAGGGGTTTTCGTTATACTGTAAGTATGTCTTTTTATTTCGGAGTCACCTAGTGCAG,11500 fluorescence intensity (a.u.)
18,CTGTGGTAGGGGAGAATGAGGGCACACATGCGGGTTTAAGCGGAGTCACCTAGTGCAG,8260 fluorescence intensity (a.u.)
19,CTATTGGCTCATACCTTTTTTCAGTGGCTGGGTGTAGGTTCGGAGTCACCTAGTGCAG,8840 fluorescence intensity (a.u.)
20,CTCCCTCCGTTTCGAAATGTTTGACGCCGTTGACTTTTTACGGAGTCACCTAGTGCAG,15900 fluorescence intensity (a.u.)
21,GTGTTTAGCGCTTTGACCATCCATCTTATCTGAAAAATTTCGGAGTCACCTAGTGCAG,11600 fluorescence intensity (a.u.)

# Part of the list above in a different format.
row	Sequence	binding signal
3	AGAGTTTTTTTTACGGATAGCGTACTCATCTAATCTACCACGGAGTCACCTAGTGCAG	9030 fluorescence intensity (a.u.)
5	GAAAGTGGGAGAGAGAATAGGTTGGGGTGGTTGGTTTGGGCGGAGTCACCTAGTGCAG	14700 fluorescence intensity (a.u.)
6	GCATGAGGTTTGCCGTTTTGTCCCTTTCTGTTACTTTTTTCGGAGTCACCTAGTGCAG	11100 fluorescence intensity (a.u.)
9	ACCTTAATCGATCTTAATTAATCGCTAACCTTTATGTCATCGGAGTCACCTAGTGCAG	8980 fluorescence intensity (a.u.)
12	TCTCCTTTTAATCTAGCCACCATTTTAATCCCTGTGGCTTCGGAGTCACCTAGTGCAG	9170 fluorescence intensity (a.u.)
19	CTATTGGCTCATACCTTTTTTCAGTGGCTGGGTGTAGGTTCGGAGTCACCTAGTGCAG	8840 fluorescence intensity (a.u.)
21	GTGTTTAGCGCTTTGACCATCCATCTTATCTGAAAAATTTCGGAGTCACCTAGTGCAG	11600 fluorescence intensity (a.u.)
